{"source": "patent US20150030542A1", "about": "“METHODS FOR MEDICAL IMAGING” (priority 2013, published 2015)", "system": "human tumors", "assay": "Ex vivo analysis of tumor fluorescence of resected specimens (NIR imaging, hand-held spectrometer)", "type": "in vivo", "text": "Following in vivo imaging, the patients then underwent a standard-of-care surgical resection of the tumor. Once removed from the patient, the specimen was examined, opened, biopsied and analyzed ex vivo (FIG. 2a). Every case was photo-documented both by brightfield imaging and NIR imaging. […] Then, the hand held spectrometer was used to semi-quantitate tissue fluorescence. Each tumor had 4 measurements at four perpendicular locations and the center of the tumor (total of 20 measurements/tumor). Mean fluorescence in the human tumors was 53,304±4193 au in 25 out of 27 masses (93%) (FIG. 2b). We conjectured that the center of the tumor might be less fluorescent than the periphery due to necrosis or, conversely, that the center of the tumor might be more fluorescent than the periphery due to increased ICG retention. We found neither to be true. The fluorescence from the tumors was remarkably homogeneous throughout the tumor. We believe this reflects “bleed over” of the fluorescent signal from different areas of the tumor surface. […] The background signal was measured from the patients' skin, muscles (latissmus dorsi, serratus anterior, intercostal), pericardium, normal lung, lymph nodes, adipose tissues, nerves (intercostal), airway and thymus whenever safely possible (FIG. 2b). […]", "data": [{"compound": "CC1(C)C(/C=C/C=C/C=C/C=C2\\N(CCCCS(=O)(=O)[O-])c3ccc4ccccc4c3C2(C)C)=[N+](CCCCS(=O)(=O)[O-])c2ccc3ccccc3c21.[Na+]", "note": "[ICG, indocyanine green]", "values": [{"measurement": "correlation between vascularity (microvessel density) and tumor fluorescence", "setting": "anti-CD31, human tumors", "result": "no correlation"}, {"measurement": "correlation between tumor cell density and fluorescence", "setting": "human tumors", "result": "no correlation"}]}]}
